# Assay results from the supplement of paper PMC8728848.
# The other results are listed elsewhere or left out.
# How the values were obtained:
# Assay in all cases: glycan array binding signal (z-score within array); higher = stronger binding
# Conditions in all cases: glycan notation: IUPAC condensed, linker removed
# Gal3S(b1-4)Glc = tested on: Gal3S(b1-4)Glc
# Summary of the method: (§1)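 Arrays were curated from the Consortium for Functional Glycomics database, 3228 in total, and kept only where the protein sequence was available. Binding is expressed as a within-array Z-score. This score was averaged across arrays of the same protein sequence at different concentrations or buffers and across linkers, and negative values can be read as non-binding.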
# [1] = tested on: Gal3S(b1-4)[Fuc(a1-3)]Glc6S
# Summary of the method: as §1
# [2] = tested on: Gal3S(b1-4)[Fuc(a1-3)]Glc
# Summary of the method: as §1
# Gal3S4S(b1-4)GlcNAc = tested on: Gal3S4S(b1-4)GlcNAc
# Summary of the method: as §1
# Gal3S6S(b1-4)GlcNAc6S = tested on: Gal3S6S(b1-4)GlcNAc6S
# Summary of the method: as §1
# Gal3S6S(b1-4)GlcNAc = tested on: Gal3S6S(b1-4)GlcNAc
# Summary of the method: as §1
# Gal4S(b1-4)GlcNAc = tested on: Gal4S(b1-4)GlcNAc
# Summary of the method: as §1
# Gal4S6S(b1-4)GlcNAc = tested on: Gal4S6S(b1-4)GlcNAc
# Summary of the method: as §1
# Gal6P(b1-4)GlcNAc = tested on: Gal6P(b1-4)GlcNAc
# Summary of the method: as §1
# Gal6S(b1-3)GlcNAc6S = tested on: Gal6S(b1-3)GlcNAc6S
# Summary of the method: as §1
# Gal6S(b1-3)GlcNAc = tested on: Gal6S(b1-3)GlcNAc
# Summary of the method: as §1
# Gal6S(b1-4)Glc6S = tested on: Gal6S(b1-4)Glc6S
# Summary of the method: as §1
# Gal6S(b1-4)GlcNAc6S = tested on: Gal6S(b1-4)GlcNAc6S
# Summary of the method: as §1
# Gal6S(b1-4)GlcNAc = tested on: Gal6S(b1-4)GlcNAc
# Summary of the method: as §1
# Gal6S(b1-4)Glc = tested on: Gal6S(b1-4)Glc
# Summary of the method: as §1
# [3] = tested on: GalNAc(a1-3)GalNAc(b1-3)Gal(a1-4)Gal(b1-4)GlcNAc
# Summary of the method: as §1
# [4] = tested on: GalNAc(a1-3)GalNAc(b1-3)Gal(a1-4)Gal(b1-4)Glc
# Summary of the method: as §1
# GalNAc(a1-3)GalNAc = tested on: GalNAc(a1-3)GalNAc
# Summary of the method: as §1
# GalNAc(a1-3)Gal = tested on: GalNAc(a1-3)Gal
# Summary of the method: as §1
# [5] = tested on: GalNAc(b1-3)Gal(a1-4)Gal(b1-4)GlcNAc(b1-3)Gal(b1-4)Glc
# Summary of the method: as §1
# [6] = tested on: GalNAc(b1-3)Gal(a1-4)Gal(b1-4)GlcNAc
# Summary of the method: as §1
# [7] = tested on: GalNAc(b1-3)Gal(a1-6)Gal(b1-4)Glc
# Summary of the method: as §1
# GalNAc(b1-3)GalNAc = tested on: GalNAc(b1-3)GalNAc
# Summary of the method: as §1
# GalNAc(b1-3)Gal = tested on: GalNAc(b1-3)Gal
# Summary of the method: as §1
# GalNAc(b1-4)Gal(b1-4)Glc = tested on: GalNAc(b1-4)Gal(b1-4)Glc
# Summary of the method: as §1
# [8] = tested on: GalNAc(b1-4)GlcNAc(b1-2)Man(a1-3)[GalNAc(b1-4)GlcNAc(b1-2)Man(a1-6)]Man(b1-4)GlcNAc(b1-4)GlcNAc
# Summary of the method: as §1
# GalNAc(b1-4)GlcNAc6S = tested on: GalNAc(b1-4)GlcNAc6S
# Summary of the method: as §1
# GalNAc(b1-4)GlcNAc = tested on: GalNAc(b1-4)GlcNAc
# Summary of the method: as §1
# GalNAc(b1-6)GalNAc = tested on: GalNAc(b1-6)GalNAc
# Summary of the method: as §1
# GalNAc3S(b1-4)GlcNAc3S = tested on: GalNAc3S(b1-4)GlcNAc3S
# Summary of the method: as §1
# GalNAc3S(b1-4)GlcNAc = tested on: GalNAc3S(b1-4)GlcNAc
# Summary of the method: as §1
# GalNAc4S6S(b1-4)GlcNAc = tested on: GalNAc4S6S(b1-4)GlcNAc
# Summary of the method: as §1
# GalNAc6S(b1-4)GlcNAc = tested on: GalNAc6S(b1-4)GlcNAc
# Summary of the method: as §1
# [9] = tested on: Glc(a1-4)Glc(a1-4)Glc(a1-4)Glc
# Summary of the method: as §1
# Glc(a1-4)Glc = tested on: Glc(a1-4)Glc
# Summary of the method: as §1
# [10] = tested on: Glc(a1-6)Glc(a1-6)Glc(a1-6)Glc
# Summary of the method: as §1
# Glc(a1-6)Glc(a1-6)Glc = tested on: Glc(a1-6)Glc(a1-6)Glc
# Summary of the method: as §1
# Glc(b1-4)Glc = tested on: Glc(b1-4)Glc
# Summary of the method: as §1
# Glc(b1-6)Glc = tested on: Glc(b1-6)Glc
# Summary of the method: as §1
# GlcA(b1-3)Gal = tested on: GlcA(b1-3)Gal
# Summary of the method: as §1
# GlcA(b1-3)GlcNAc = tested on: GlcA(b1-3)GlcNAc
# Summary of the method: as §1
# GlcA(b1-6)Gal = tested on: GlcA(b1-6)Gal
# Summary of the method: as §1
# [11] = tested on: GlcNAc(a1-3)Gal(b1-4)GlcNAc
# Summary of the method: as §1
# [12] = tested on: GlcNAc(a1-4)Gal(b1-3)GlcNAc
# Summary of the method: as §1
# [13] = tested on: GlcNAc(a1-4)Gal(b1-4)GalNAc
# Summary of the method: as §1
# [14] = tested on: GlcNAc(a1-4)Gal(b1-4)GlcNAc(b1-3)Gal(b1-4)GlcNAc(b1-3)Gal(b1-4)GlcNAc
# Summary of the method: as §1
# [15] = tested on: GlcNAc(a1-4)Gal(b1-4)GlcNAc(b1-3)Gal(b1-4)GlcNAc
# Summary of the method: as §1
# [16] = tested on: GlcNAc(a1-4)Gal(b1-4)GlcNAc(b1-3)Gal(b1-4)Glc
# Summary of the method: as §1
# [17] = tested on: GlcNAc(a1-4)Gal(b1-4)GlcNAc(b1-3)Gal(b1-4)[Fuc(a1-3)]GlcNAc(b1-3)Gal(b1-4)[Fuc(a1-3)]GlcNAc
# Summary of the method: as §1
# [18] = tested on: GlcNAc(a1-4)Gal(b1-4)GlcNAc
# Summary of the method: as §1
# [19] = tested on: GlcNAc(a1-6)Gal(b1-4)GlcNAc
# Summary of the method: as §1
# [20] = tested on: GlcNAc(b1-2)Gal(b1-3)GalNAc
# Summary of the method: as §1
substance,measurement,setting,value
"Wza (Escherichia coli), P0A930",glycan array binding signal (z-score),Gal3S(b1-4)Glc,1.76
same,glycan array binding signal (z-score),[1],0.421
same,glycan array binding signal (z-score),[2],0.16
same,glycan array binding signal (z-score),Gal3S4S(b1-4)GlcNAc,0.644
same,glycan array binding signal (z-score),Gal3S6S(b1-4)GlcNAc6S,0.78
same,glycan array binding signal (z-score),Gal3S6S(b1-4)GlcNAc,-0.768
same,glycan array binding signal (z-score),Gal4S(b1-4)GlcNAc,-0.184
same,glycan array binding signal (z-score),Gal4S6S(b1-4)GlcNAc,0.304
same,glycan array binding signal (z-score),Gal6P(b1-4)GlcNAc,-1.21
same,glycan array binding signal (z-score),Gal6S(b1-3)GlcNAc6S,0.434
same,glycan array binding signal (z-score),Gal6S(b1-3)GlcNAc,-0.247
same,glycan array binding signal (z-score),Gal6S(b1-4)Glc6S,-0.752
same,glycan array binding signal (z-score),Gal6S(b1-4)GlcNAc6S,0.571
same,glycan array binding signal (z-score),Gal6S(b1-4)GlcNAc,0.029
same,glycan array binding signal (z-score),Gal6S(b1-4)Glc,-0.9
same,glycan array binding signal (z-score),[3],-0.725
same,glycan array binding signal (z-score),[4],-0.987
same,glycan array binding signal (z-score),GalNAc(a1-3)GalNAc,-0.127
same,glycan array binding signal (z-score),GalNAc(a1-3)Gal,-1.26
same,glycan array binding signal (z-score),[5],0.429
same,glycan array binding signal (z-score),[6],-0.316
same,glycan array binding signal (z-score),[7],1.39
same,glycan array binding signal (z-score),GalNAc(b1-3)GalNAc,-0.525
same,glycan array binding signal (z-score),GalNAc(b1-3)Gal,1.73
same,glycan array binding signal (z-score),GalNAc(b1-4)Gal(b1-4)Glc,0.463
same,glycan array binding signal (z-score),[8],-0.166
same,glycan array binding signal (z-score),GalNAc(b1-4)GlcNAc6S,0.065
same,glycan array binding signal (z-score),GalNAc(b1-4)GlcNAc,0.869
same,glycan array binding signal (z-score),GalNAc(b1-6)GalNAc,0.418
same,glycan array binding signal (z-score),GalNAc3S(b1-4)GlcNAc3S,0.061
same,glycan array binding signal (z-score),GalNAc3S(b1-4)GlcNAc,2.01
same,glycan array binding signal (z-score),GalNAc4S6S(b1-4)GlcNAc,0.454
same,glycan array binding signal (z-score),GalNAc6S(b1-4)GlcNAc,-0.405
same,glycan array binding signal (z-score),[9],-1.74
same,glycan array binding signal (z-score),Glc(a1-4)Glc,-0.206
same,glycan array binding signal (z-score),[10],1.7
same,glycan array binding signal (z-score),Glc(a1-6)Glc(a1-6)Glc,-0.936
same,glycan array binding signal (z-score),Glc(b1-4)Glc,-0.707
same,glycan array binding signal (z-score),Glc(b1-6)Glc,1.01
same,glycan array binding signal (z-score),GlcA(b1-3)Gal,-1.24
same,glycan array binding signal (z-score),GlcA(b1-3)GlcNAc,-0.753
same,glycan array binding signal (z-score),GlcA(b1-6)Gal,-1.45
same,glycan array binding signal (z-score),[11],0.237
same,glycan array binding signal (z-score),[12],-0.897
same,glycan array binding signal (z-score),[13],-0.321
same,glycan array binding signal (z-score),[14],-0.23
same,glycan array binding signal (z-score),[15],-0.769
same,glycan array binding signal (z-score),[16],0.214
same,glycan array binding signal (z-score),[17],3.13
same,glycan array binding signal (z-score),[18],1.07
same,glycan array binding signal (z-score),[19],0.459
same,glycan array binding signal (z-score),[20],-0.909

# Some of the entries so far, with tabs:
substance	measurement	setting	value
Wza (Escherichia coli), P0A930	glycan array binding signal (z-score)	Glc(a1-6)Glc(a1-6)Glc	-0.936
same	glycan array binding signal (z-score)	Glc(b1-4)Glc	-0.707
same	glycan array binding signal (z-score)	Glc(b1-6)Glc	1.01
same	glycan array binding signal (z-score)	GlcA(b1-3)Gal	-1.24
same	glycan array binding signal (z-score)	GlcA(b1-3)GlcNAc	-0.753
same	glycan array binding signal (z-score)	GlcA(b1-6)Gal	-1.45
same	glycan array binding signal (z-score)	[11]	0.237
same	glycan array binding signal (z-score)	[12]	-0.897
same	glycan array binding signal (z-score)	[13]	-0.321
same	glycan array binding signal (z-score)	[14]	-0.23
same	glycan array binding signal (z-score)	[15]	-0.769
same	glycan array binding signal (z-score)	[16]	0.214
same	glycan array binding signal (z-score)	[17]	3.13
same	glycan array binding signal (z-score)	[18]	1.07
same	glycan array binding signal (z-score)	[19]	0.459
